According to publication PMC11431649:
Results are given in words; binding and its absence hold for the method and conditions named.

Target: recombinant human CD4 protein (extracellular domain) (human) (UniProt P01730)
Assay: SPR; Biacore T200; hCD4 immobilised on a CM7 chip (20–27 kRU) by amine coupling; unlabeled peptides in two-fold dilutions from 100 µM; 10 mM HEPES pH 7.5, 150 mM NaCl, 0.05% Tween 20, with or without 1% DMSO; 15 °C; a reference protein under the same conditions for specificity; both purified

Row | binding | Binder
1 | no binding (tested: 100 µM) | SWTVWRS [unlabeled synthetic peptide P16 (SWTVWRS)]
2 | no binding (tested: 100 µM) | WHWPLTV [unlabeled synthetic peptide P18 (WHWPLTV)]
